Reference: PMC11754618
Results are given in words; binding and its absence hold for the method and conditions named. Some results given as binding are weak or reduced against the parent protein; the word gives no strength. For some assays here: Tags and fused reporters may be left off the sequences shown.

Sequences of proteins named here, by UniProt entry; tags and fusion partners are left off.
UniProt Q9Y5T5: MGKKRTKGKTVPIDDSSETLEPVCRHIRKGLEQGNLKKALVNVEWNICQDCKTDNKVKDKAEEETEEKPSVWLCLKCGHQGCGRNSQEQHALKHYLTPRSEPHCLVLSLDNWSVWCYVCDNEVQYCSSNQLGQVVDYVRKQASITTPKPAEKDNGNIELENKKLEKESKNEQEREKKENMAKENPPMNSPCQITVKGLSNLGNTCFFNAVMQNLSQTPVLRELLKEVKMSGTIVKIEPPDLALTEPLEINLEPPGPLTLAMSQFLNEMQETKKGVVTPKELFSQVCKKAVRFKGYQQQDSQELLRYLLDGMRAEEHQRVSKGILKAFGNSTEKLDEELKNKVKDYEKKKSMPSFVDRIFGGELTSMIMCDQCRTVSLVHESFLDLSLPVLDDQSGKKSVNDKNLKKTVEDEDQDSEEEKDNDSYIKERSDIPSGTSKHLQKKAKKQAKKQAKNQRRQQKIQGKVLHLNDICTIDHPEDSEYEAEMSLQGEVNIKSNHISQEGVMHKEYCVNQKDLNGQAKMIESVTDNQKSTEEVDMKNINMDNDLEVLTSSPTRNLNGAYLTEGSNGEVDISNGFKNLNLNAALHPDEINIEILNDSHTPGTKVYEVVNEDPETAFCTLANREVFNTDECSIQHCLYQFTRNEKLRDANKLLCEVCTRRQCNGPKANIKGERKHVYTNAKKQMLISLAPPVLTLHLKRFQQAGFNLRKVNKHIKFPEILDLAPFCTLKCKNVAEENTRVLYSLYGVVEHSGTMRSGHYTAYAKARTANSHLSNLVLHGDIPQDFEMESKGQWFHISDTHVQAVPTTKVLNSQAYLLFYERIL
UniProt P45974: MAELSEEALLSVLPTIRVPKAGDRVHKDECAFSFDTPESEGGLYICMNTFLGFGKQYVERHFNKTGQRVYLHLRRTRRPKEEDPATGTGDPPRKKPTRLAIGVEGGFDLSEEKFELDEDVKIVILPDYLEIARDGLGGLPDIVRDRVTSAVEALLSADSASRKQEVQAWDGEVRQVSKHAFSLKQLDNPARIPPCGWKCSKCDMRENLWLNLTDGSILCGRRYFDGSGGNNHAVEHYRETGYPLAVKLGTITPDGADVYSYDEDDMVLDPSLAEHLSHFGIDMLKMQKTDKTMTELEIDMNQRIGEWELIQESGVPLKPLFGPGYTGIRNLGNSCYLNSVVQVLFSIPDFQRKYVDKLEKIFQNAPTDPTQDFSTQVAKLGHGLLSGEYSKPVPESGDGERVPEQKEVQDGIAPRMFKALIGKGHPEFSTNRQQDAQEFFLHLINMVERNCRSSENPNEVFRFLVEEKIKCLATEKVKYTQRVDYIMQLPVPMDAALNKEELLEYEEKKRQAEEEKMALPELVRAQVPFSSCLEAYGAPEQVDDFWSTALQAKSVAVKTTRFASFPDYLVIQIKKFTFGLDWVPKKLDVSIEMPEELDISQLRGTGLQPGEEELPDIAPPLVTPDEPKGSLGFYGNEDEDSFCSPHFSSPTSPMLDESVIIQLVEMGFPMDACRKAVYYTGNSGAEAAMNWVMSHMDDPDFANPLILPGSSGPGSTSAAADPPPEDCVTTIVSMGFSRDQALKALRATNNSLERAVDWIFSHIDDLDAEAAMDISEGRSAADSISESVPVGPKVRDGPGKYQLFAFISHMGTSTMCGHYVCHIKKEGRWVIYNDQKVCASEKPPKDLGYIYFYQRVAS

Legend:
[1] = target: recombinant human USP16 (human) (UniProt Q9Y5T5); test: covalent labelling by an activity-based probe (SDS-PAGE); equimolar mixture of recombinant human USP18 and USP16 with Ac-mISG15CTD-PA probes (Supplementary Fig. 20); both purified
USP18^WT-FLAG = target: T1, USP18^WT-FLAG (UniProt Q9UMW8); test: covalent labelling by an activity-based probe (SDS-PAGE); only the binder purified
T1 sequence: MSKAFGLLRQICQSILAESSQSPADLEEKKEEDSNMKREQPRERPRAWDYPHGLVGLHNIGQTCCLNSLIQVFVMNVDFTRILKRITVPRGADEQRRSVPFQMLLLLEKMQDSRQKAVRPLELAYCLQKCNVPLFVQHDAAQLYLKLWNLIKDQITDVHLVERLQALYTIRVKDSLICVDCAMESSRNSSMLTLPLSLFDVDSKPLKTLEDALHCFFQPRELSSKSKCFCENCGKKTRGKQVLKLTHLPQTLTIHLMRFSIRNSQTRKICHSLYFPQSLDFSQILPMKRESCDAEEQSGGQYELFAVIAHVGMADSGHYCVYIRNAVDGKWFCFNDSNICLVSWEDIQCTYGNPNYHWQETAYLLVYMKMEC

USP5 (recombinant) [2] = target: USP5 (recombinant) (UniProt P45974); test: covalent labelling by an activity-based probe (SDS-PAGE); recombinant USP18 (2 μM), USP5 (1 μM) or USP16 (0.45 μM) with Ac-Ubl-PA probes (10 μM), 3 h, room temperature; higher band on SDS-PAGE, SYPRO Ruby staining; both purified
[3] = target: recombinant human USP16 (human) (UniProt Q9Y5T5); test: as above
USP5 (recombinant) [4] = target: USP5 (recombinant) (UniProt P45974); test: covalent labelling by an activity-based probe (SDS-PAGE); labelling of USP5 by hISG15FL- and mISG15CTD-based probes (Supplementary Fig. 1B); conditions not shown

Measured: binding

B1: Ac-mISG15CTD[WT]-PA (domain or fragment)
chain: LSILVRNERGHSNIYEVFLTQTVDTLKKKVSQREQVHEDQFWLSFEGRPMEDKELLGEYGLKPQSTVIKHLRLRG
modifications: N-terminal acetyl; C-terminal propargylamine (PA) warhead replacing Gly155
binds: all assays above
